In paper PMC5679654 one finds binding data, which are given here for one molecule.

In this assay the target is T1, IRF3 (endogenous, HEK293FT nuclear extract) (human (endogenous in HEK293FT)) (UniProt Q14653).
T1 sequence: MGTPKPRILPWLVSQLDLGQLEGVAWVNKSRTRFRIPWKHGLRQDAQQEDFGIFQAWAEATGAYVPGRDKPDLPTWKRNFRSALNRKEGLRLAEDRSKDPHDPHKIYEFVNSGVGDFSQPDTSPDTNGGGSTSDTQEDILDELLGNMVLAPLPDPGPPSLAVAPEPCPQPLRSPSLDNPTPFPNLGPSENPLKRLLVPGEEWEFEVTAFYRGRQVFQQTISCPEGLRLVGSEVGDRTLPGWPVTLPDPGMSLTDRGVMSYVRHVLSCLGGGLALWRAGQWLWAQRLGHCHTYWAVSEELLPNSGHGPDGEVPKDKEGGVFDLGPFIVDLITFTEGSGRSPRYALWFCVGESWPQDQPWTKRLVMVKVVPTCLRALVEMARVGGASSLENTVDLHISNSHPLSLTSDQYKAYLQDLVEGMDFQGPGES
Description: co-IP; nuclear extracts of HEK293FT cells cotransfected with HA-EAP30 or HA-EAP20 and FLAG-CBP-HA for 48 h, mock-infected or infected with SeV for 8 h; IP with anti-CBP pAb or anti-IRF3 pAb, blot with anti-CBP, anti-IRF3 and anti-HA.

No constants are given. Whether binding was seen depends on the method and setting. Binding seen in cells or lysates may run through a third protein. Some binding calls cover weakened binding; strength is not graded here. Where a sequence is shown, tags or fusion partners need not be part of it.

B1: HA-EAP30 (protein, UniProt Q96H20 1-258)
chain: MHRRGVGAGAIAKKKLAEAKYKERGTVLAEDQLAQMSKQLDMFKTNLEEFASKHKQEIRKNPEFRVQFQDMCATIGVDPLASGKGFWSEMLGVGDFYYELGVQIIEVCLALKHRNGGLITLEELHQQVLKGRGKFAQDVSQDDLIRAIKKLKALGTGFGIIPVGGTYLIQSVPAELNMDHTVVLQLAEKNGYVTVSEIKASLKWETERARQVLEHLLKEGLAWLDLQAPGEAHYWLPALFTDLYSQEITAEEAREALP
Consider B1, for which the binding entry is reported as “binds”.
